These are yes or no findings as the source states them, for the method shown. In cells and extracts the contact can be indirect. Here binding means that the protein was enriched with, or labelled near, the bait; the list need not be complete. Tags and fused reporters may be left off the sequences shown.
T1: His-Asp4 (accessory Sec protein Asp4 of S. gordonii with an N-terminal His6 tag) (S. gordonii) (UniProt Q4L2X3)
T1 sequence: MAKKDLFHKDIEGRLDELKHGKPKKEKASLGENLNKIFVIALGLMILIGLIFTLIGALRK

Protein sequences, listed by entry. Tags and fused reporters are not part of them. Lines headed by an entry give the natural chain unless they say otherwise; changes in a name come on top.
UniProt Q4L2X2: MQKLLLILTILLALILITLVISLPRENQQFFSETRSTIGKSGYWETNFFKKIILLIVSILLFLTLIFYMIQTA


Molecular target: T1, His-Asp4 (accessory Sec protein Asp4 of S. gordonii with an N-terminal His6 tag) (S. gordonii)
Experiment: affinity purification with mass spectrometry; His-Asp4, SecY2 and Asp5 co-expressed in E. coli C43; DDM-solubilised membranes applied to Ni2+-Sepharose (wash 30 mM imidazole, elution 330 mM imidazole), then Superdex 200 gel filtration in TSG130 buffer with 0.02% DDM; SDS-PAGE bands at 25 and 10 kDa identified by LC-MS

| Molecule | binding |
| --- | --- |
| Asp5 (accessory Sec protein Asp5 of S. gordonii) (from UniProt Q4L2X2) | binds |
| SecY2 of S. gordonii (protein, UniProt A8AWV0 1-407) MKSFFKPLILKKFLWTLLFVFIYVLGSKLTLPFVDVSSIAKLNGDSVTLNYAAALMGGNLRSMSFFSIGLAPWMSSILIWQMFTVSKRLGFNKLSMESQEKRRMLLTLAIALIQSLALVLNLPLKTVVGVGQGTIVFLNTLILIAGTYFLIWLTDLNSSMGLGGSIMIVMVSMISYIPQDIWLSIQELKISPLILALIGFFSLCFLYLAVLVERAKYRIPINKINIHNRFKKYSYLDIRVNAAGGLPIMYAMTLVSIPQYFLMLFLFFQPNNRLLKEGILSLAMGGIPWFILYLLTIFILAWAFAFINVNSDQIAERMQRSGEYIENLYPGEATRRYIHKIVGYFAFVGALYLVLVAGLPMLLIFLDIRYMRLGMIPGMFMIFIGMVFSIKDEVDTLTLNDRYRSLF | binds |
